# Patent US20050069542A1 (Human Genome Sciences, published 2005)
# Protein sequences, listed by entry. Tags and fused reporters are not part of them. Lines headed by an entry give the natural chain unless they say otherwise; changes in a name come on top.
# UniProt Q9HD89: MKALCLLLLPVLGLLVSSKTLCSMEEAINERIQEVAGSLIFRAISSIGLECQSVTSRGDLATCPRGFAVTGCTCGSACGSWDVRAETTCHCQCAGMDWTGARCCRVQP
# Results are given in words; binding and its absence hold for the method and conditions named. Some entries that bind do so weakly or less than the wild type.
# Tests used:
# [1] = target: Flag-tagged recombinant human GMAD (human) (UniProt Q9HD89); assay: phage ELISA
# [2] = target: Flag-tagged recombinant human GMAD (human) (UniProt Q9HD89); assay: phage display selection of scFvs
Binder,binding [1],binding [2]
GMBC618 (scFv) scFv: EVQLVQSGGGLVKPGGSLRLSCAASGFKFDDAWMNWVRQAPGKGLEWVGRIKSKRSGGTIDYAAPVKDRFTISRDDSKNTLYLQMNSLRTEDTALYYCTWDWDFYYGMNVWGRGTLVTVSSGGGGSGGGGSGGGGSQSVLTQPPSASGTPGQRVTISCSGSSSNIGSNTVNWYQRLPGAAPQLLIYNNDQRPSGIPDRFSGSKSGTSGSLVISGLQSEDEADYYCASWDDSLNGRVFGGGTKLTVLG,binds,binds
GMBC667 (scFv) scFv: QVQLQESGGGLVKPGGSLRLSCAGSGFPFSDAWMNWVRQAPGKGLEWVGRIKSKGSGGTIDYAAPVKDRFRISRDDSKNTLYLQMNSLNIEDTALYYCTWDWDFYYGMNVWGQGTTVTVSSGGGGSGGGGSGGGGSQSVLTQPASVSGSPGQSITISCTGTSSDVGGYNYVSWYQQHPGKAPKLMIYEGSKRPSGVSNRFSGSKSGNTASLTISGLQAEDEADYYCSSYTTRSTRVFGGGTKLTVLG,binds,binds
GMBC679 (scFv) scFv: QVQLVESGGGLVKPGGSLRLSCAASGFTFSDAWMNWVRQAPGKGLEWVGRIKSKGSGGTTDYAAPVKDRFTISRDDSENTLYLQMNSLKTEDTAVYYCTWDHSYYYDMAVWGRGTLVTVSSGGGGSGGGGSGGGGSQSVLTQPASVSGSPGQSITISCTGTSSDVGGYNYVSWYQQHPGKAPKLVIYEGSKRPSGVSNRFSGSKSGNTASLTISGLQAEDEADYYCSSYTTRSTRVFGGGTKLTVLG,binds,binds
GMBC693 (scFv) scFv: QVQLVESGGGLVKPGGSLRLSCAASGFTFSDAWMNWVRQAPGKGLEWVGRIKSKGSGGTIDYAAPVKDRFTISRDDSKNTLYLQMNSLKTEDTALYYCTWDWDFYYGMNVWGKGTLVTVSSGGGGSGGGGSGGGGSQSVLTQPASVSGSPGQSITISCTGTSSDVGGYNYVSWYQQHPGKAPKLMIYEGSKRPSGVSNRFSGSKSGDTASLTISGLQAEDEADYYCSSYTTRSTRVFGGGTKLTVLG,binds,binds
GMBC684 (scFv) scFv: QVQLVQSGGGLVKPGGSLRLSCAASGFKFSDAWMNWVRQAPGKGLEWVGRIKSKGSGGTIDYAAPVKDRFTISRDDSKNTLYLQMNSLKTEDTALYYCTWDWDFYYGMNVWGQGTPVTVSSGGGGSGGGGSGGGGSQSALTQPASVSGSPGQSITISCTGTSSDVGGYNYVSWYQQHPGKAPKLMIYEGSKRPSGVSNRFSGSKSGNTASLTISGLQAEDEADYYCSSYTTRSTRVFGGGTKLTVLG,binds,binds
GMBC690 (scFv) scFv: EVQLVQSGGGVVQPGRSLRLSCAASGFTFSDAWMNWVRQAPGKGLEWVGRIKSKGSGGTIDYAAPVKDRFTISRDDSKNTLYLQMNSLKTEDTALYYCTWDWDFYYGMNVWGRGTLVTVSSGGGGSGGGGSGGGGSQSVLTQPASVSGSPGQSITISCTGTSSDVGGYIYVSWYQQHPGRAPKLMIYEGSKRPSGVSNRFSGSKSGNTASLTISGLQAEDEADYYCSSYTTRSTRVFGGGTKLTVLG,binds,binds
GMBC672 (scFv) scFv: QVQLVQSGGGLVKPGGSLRLSCAASGFTFSDAWMNWVRQAPGKGLEWVGRIKSKGSGGTIDYAAPVKDRFTISRDDSKNTLYLQMNSLKTEDTALYYCTWDWDFYYGMNVWGQGTLVTVSSGGGGSGGGGSGGGGSQSVLTQPASVSGSPGQSITISCTGTSSDVGGYNYVSWYQQHPGKAPKLMIYEGSKRPSGVSNRFSGSKSGNTASLTISGLQAEDEADYYCSSYTTRSTRVFGEGTKLTVLG,binds,binds
GMBC686 (scFv) scFv: EVQLVQSGGGLVKPGGSLRLSCAASGFTFSDAWMNWVRQAPGKGLEWVGRIKSKGSGGTIDYAAPVKDRFTISRDDSKNTLYLQMNSLKTEDTALYYCTWDWDFYYGMNVWGQGTTVTVSSGGGGSGGGGSGGGGSQSVLTQPASVSGSPGQSITISCTGTSSDVGGYNYVSWYQQHPGKAPKLMIYEGSKRPSGVSNRFSGSKSGNTASLTISGLQAEDEADYYCSSYTTRSTRVFGGGTKLTVLG,binds,binds
GMBC609 (scFv) scFv: QVQLVESGGGLVKPGESLRLSCEASGFEFNYAWMSWVRQAPGKGLEWVGRSRSEASGGTTDYAAPLQDRFTISRDDSKNTLYLQVNSLKIEDTGVYFCKWEKSEYYGMDVWGRGTPVTVSSGGGGSGGGGSGGGGSQSVLTQPPSVSAAPGQKVTISCSGSTSNIGNNYVSWYQQHPGKAPKLMIYDVSKRPSGVPDRFSGSKSGNSASLDISGLQSEDEADYYCAAWDDSLSEFLFGTGTKLTVLG,binds,binds
GMBC606 (scFv) scFv: EVQLVQSGGGVVQPGGSLRLSCAASGFTFSSYGMHWVRQAPGKGLEWVAFIRYDGSNKYYADSVKGRFTISRDNSKNTLYLQMNSLRAEDTAVYYCAKSSSFANAFDIWGQGTTVTVSSGGGGSGGGGSGGGGSSELTQDPAVSVALGQTVRITCQGDSLRSYYASWYQQKPGQAPVLVIYGKNNRPSGIPDRFSGSSSGNTASLTITGAQAEDEADYYCNSRDSSGNHVVFGGGTKLTVLG,binds,binds

# Second part, the binder after the results:
binding [1],binding [2],Binder
binds,binds,GMBC727 (scFv) scFv: EVQLVESGGDTVKPGGSLRLSCAGSGFTFSDAWMNWVRQAPGKGLEWVGRMKSKGSGGTRDYAAPVNGRFTISRDDSKNTLYLQMNSLNTEDTGVYYCTWDWDFYYGMNVWGRGTLVTVSSGGGGSGGGGSGGGGSQSVLTQPASVSGSPGQSITISCTGTSSDVGGYNYVSWYQQHPGKAPKLMIYEGSKRPSGVSNRFSGSKSGNTASLTISGLQAEDEADYYCSSYTTRSTRVFGGGTKLTVLG
binds,binds,GMBC670 (scFv) scFv: EVQLVETGGGLVKPGGSLRLSCVASGFTFSDAWMNWVRQAPGKGLEWVGRIKSKGSGGTIDYAAPVKDRFIISRDDSKNTLYLQVNSLKTEDTALYYCTWDWDFYYGMNVWGQGTLVTVSSGGGGSGGGGSGGGGSQSVLTQPASVSGSPGQSITISCTGTSSDVGGYNYVSWYQQHPGKAPKLMIYEGSKRPSGVSNRFSGSKSGNTASLTISGLQAEDEADYYCSSYTTRSTRVFGGGTKLTVLG
binds,binds,GMBC676 (scFv) scFv: EVQLVQSGGGLVQPGGSLRLSCAASGFTFSHAWMNWVRQAPGKGLEWVGRIKSKASGGTIDYAAPVKDRFTISRDDSKNTLYLHMNSLKTEDTALYYCTWDWDFYYGMNVWGRGTMVTVSSGGGGSGGGGSGGGGSQSVLTQPASVSGSPGQPITISCTGTSSDVGGYNYVSWYQQHPGKAPKLMIYEGSKRPSGVSNRFSGSKSGNTASLTISGLQAEDEADYYCSSYTTRSTRVFGGGTKLTVLG
binds,binds,GMBC617 (scFv) scFv: EVQLVETGGGLVQPGGSLRLSCAASGFTVSSNYMSWVRQAPGKGLEWVSVIYSGGSTYYADSVKGRFTISRHNSKNTLYLQMNSLRAEDTAVYYCARGLWFGELLYWGQGTLVTVSSGGGGSGGGGSGGGGSQSALTQPASVSGSRGQSITISCTGTTGDVGGYDYVSWYQQHPGKAPKLLIYGNSNRPSGVPDRFSASKSGNTASLTISGLQAEDEADYFCSTYAPPGIIMFGGGTKLTVLG
binds,binds,GMBC608 (scFv) scFv: EVQLVQSGGGLVQPGRSLRLSCAASGFTFSDSYMTWIRQAPGEGLEFVSYISSGSSTTYYTDSVKGRFTISRDNSKNTLYLQMNSLRPEDTAVYYCARRSISSDYYSYYLDVWGKGTLVTVSSGGGGSGGGGSGGGGSSELTQDPAVSVALGQTVRITCQGDSLRSYYASWYQQKPGQAPVLVIYGKNNRPSGIPDRFSGSSSGNTASLTITGAQAEDEADYYCNSRDSSGNHVVFGGGTKLTVLG
binds,binds,GMBC612 (scFv) scFv: EVQLVESGGGVVQPGGSLRLSCAASGFSFSSYGMQWVRQAPGKGLEWVAFIRYDGSIKYYADSVKGRFTVSRDNSKNTLYLQMNSLRAEDTAVYYCARGYRIVDYWGQGTLVTVSSGGGGSGGGGSGGGGSDIQMTQSPSTLSPSIGDRVTITCRASEGIYHWLAWYQQKPGKAPKLLIYKASSLASGAPSRFSGSGSGTDFTLTISSLQPDDFATYYCQQYSNYPLTFGGGTKLEIKR
binds,binds,GMBC610 (scFv) scFv: QVTLKESGAEVKKPGASVKVSCKTSGFTFGAYYIHWVRQVPGQGLEWMGWIDPNNGGTNYAQKFQGRVTMTRDMSTTTTYMEVSGLHSDDTAVYYCARARVATILEYWGRGTLVTVSSGGGGSGGGGSGGGGSPELTQDPAVSVALGQTVRITCQGDSLRSYYASWYQQKPGQAPVLVIYGKNNRPSGIPDRFSGSSSGNTASLTITGAQAEDEADYYCNSRDSSGNHVVFGGGTKLTVLG
binds,binds,GMBC666 (scFv) scFv: EVQLVESGGGLAKPGESLRLSCEASGFEFNYAWMSWVRQAPGKGLEWVGRSRSEASGGTTDYAAPLQDRFTISRDDSKNTLYLQVNSLKIEDTGVYFCKWEKSEYYGMDVWGKGTMVTVSSGGGGSGGGGSGGGGSQSVLTQPPSVSAAPGQKVTISCSGSTSNIGNNYVSWYQQHPGKAPKLMIYDVSKRPSGVPDRFSGSKSGNSASLDISGLQSEDEADYYCAAWDDSLSEFLFGTGTKLTVLG
binds,binds,GMBC725 (scFv) scFv: EVQLVQTGGGVVQPGGSLRLSCAASGFTFSSYGMHWVRQAPGKGLEWVAFILYDGSNKYYADSVKGRFTISRDNSKNTLYLQMNSLRAEDTAVYYCAKSSSSASAFDIWRQRTTVTVSSGGGGSGGGGSGGGGSSELTQDPAVSVALGQTVRITCQGDSLRSYYASWYQQKPGQAPVLVIYGKNNRPSGIPDRFSGSSSGNTASLTITGAQAEDEADYYCNSRDSSGNHVVFGGGTKLTVLG
